{"source": "the supplement of paper PMC12889115", "tested_on": "Salmonella enterica serovar Typhimurium SL1344", "experiment": "bacterial growth OD600 after 18 h with compound and polymyxin B; higher = more bacterial growth (less inhibition)", "details": "50 µM, Mueller-Hinton broth", "note": "The list shows a part of the results. These are raw signals, not scaled to a control.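 First-pass screen: polymyxin B was added at a level that permeabilizes the Salmonella outer membrane while sparing the inner membrane. DMSO wells, with and without polymyxin B, defined maximum growth. Because plates differed from one another, each plate's data were ranked separately and the compounds with the lowest OD600 were carried forward as hits.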", "data": [{"smiles": "CC(C)CNc1ccc(C(=O)N2CCCN(c3ncccn3)CC2)cn1", "values": [{"measurement": "bacterial growth OD600", "setting": "polymyxin B 1 µg/mL", "value": 1.01}]}, {"smiles": "COc1cccc(CN2C(=O)NC(C)(C3CCN(C(=O)c4ccc(F)cc4)CC3)C2=O)c1OC", "note": "(stereo unspecified)", "values": [{"measurement": "bacterial growth OD600", "setting": "polymyxin B 0.75 µg/mL", "value": 0.754}]}, {"smiles": "COCCC(=O)N1CCC(Oc2ccc(C(=O)NCC3CCOCC3)cc2)CC1", "values": [{"measurement": "bacterial growth OD600", "setting": "polymyxin B 1 µg/mL", "value": 0.848}]}, {"smiles": "Fc1ccccc1Cc1noc(CN2CCN(c3cccc(Cl)c3)CC2)n1", "values": [{"measurement": "bacterial growth OD600", "setting": "polymyxin B 1 µg/mL", "value": 0.584}]}, {"smiles": "CC(C)CNC(=O)C1CCC(=O)N(C2CC2)C1", "note": "(stereo unspecified)", "values": [{"measurement": "bacterial growth OD600", "setting": "polymyxin B 1 µg/mL", "value": 0.963}]}, {"smiles": "COc1ccc(OC)c(-c2nc(CN3CCN(c4cnccn4)CC3)c(C)o2)c1", "values": [{"measurement": "bacterial growth OD600", "setting": "polymyxin B 0.75 µg/mL", "value": 0.795}]}, {"smiles": "COC(=O)C1CCCCN1Cc1ccc2c(c1)CN(Cc1ccc(Sc3nncn3C)o1)CCO2", "note": "(stereo unspecified)", "values": [{"measurement": "bacterial growth OD600", "setting": "polymyxin B 0.75 µg/mL", "value": 1.04}]}, {"smiles": "O=C(CCc1cnccn1)N1CCCC(CCc2ccc(F)cc2F)C1", "note": "(stereo unspecified)", "values": [{"measurement": "bacterial growth OD600", "setting": "polymyxin B 0.75 µg/mL", "value": 0.804}]}, {"smiles": "COC(=O)C1CCN(C(=O)CC(c2ccccc2)c2ccccc2Cl)CC1", "note": "(stereo unspecified)", "values": [{"measurement": "bacterial growth OD600", "setting": "polymyxin B 1 µg/mL", "value": 0.026}]}, {"smiles": "CCc1noc(C)c1C(=O)N1CCc2onc(-c3cccc(OC)c3)c2C1", "values": [{"measurement": "bacterial growth OD600", "setting": "polymyxin B 1 µg/mL", "value": 0.951}]}, {"smiles": "COC(=O)c1cccc(-c2cc(Cl)c3c(c2)CC(CNC(=O)c2ccnn2C)O3)c1", "note": "(stereo unspecified)", "values": [{"measurement": "bacterial growth OD600", "setting": "polymyxin B 0.75 µg/mL", "value": 0.069}]}, {"smiles": "CCCCN(C)C(=O)c1sc2ncnc(NCCc3ccccn3)c2c1C", "values": [{"measurement": "bacterial growth OD600", "setting": "polymyxin B 0.75 µg/mL", "value": 0.844}]}, {"smiles": "O=C(NCCN1Cc2ccccc2OC(c2ccccc2F)C1)c1ccncc1", "note": "(stereo unspecified)", "values": [{"measurement": "bacterial growth OD600", "setting": "polymyxin B 0.75 µg/mL", "value": 0.605}]}, {"smiles": "COc1ccc(OC)c(-c2cc(Cl)c3c(c2)CC(CNC(=O)c2c(F)cccc2F)O3)c1", "note": "(stereo unspecified)", "values": [{"measurement": "bacterial growth OD600", "setting": "polymyxin B 0.75 µg/mL", "value": 0.009}]}, {"smiles": "COCCN1C(=O)CC(CC(=O)N(CC2CC2)CC2CCCO2)(c2ccccc2F)C1=O", "note": "(stereo unspecified)", "values": [{"measurement": "bacterial growth OD600", "setting": "polymyxin B 0.75 µg/mL", "value": 0.819}]}, {"smiles": "COc1ccc(Cl)cc1NC(=O)CCC1CCCN(Cc2nc3ccccc3[nH]2)C1", "note": "(stereo unspecified)", "values": [{"measurement": "bacterial growth OD600", "setting": "polymyxin B 1 µg/mL", "value": 0.879}]}, {"smiles": "COCc1cc(CN2CCCC(CCC(=O)Nc3ccccc3F)C2)ccc1OC", "note": "(stereo unspecified)", "values": [{"measurement": "bacterial growth OD600", "setting": "polymyxin B 1 µg/mL", "value": 0.913}]}, {"smiles": "O=C(CN1CCCCCC1)NC1CCCc2nc(-c3cccnc3)ncc21", "note": "(stereo unspecified)", "values": [{"measurement": "bacterial growth OD600", "setting": "polymyxin B 0.75 µg/mL", "value": 0.968}]}, {"smiles": "COCCN1CC(C(=O)NCCCc2ccc(OC)cc2)CCC1=O", "note": "(stereo unspecified)", "values": [{"measurement": "bacterial growth OD600", "setting": "polymyxin B 1 µg/mL", "value": 0.85}]}, {"smiles": "CC(C)CC(=O)C(=O)N1CCC(n2nccc2NC(=O)C2CCOC2)CC1", "note": "(stereo unspecified)", "values": [{"measurement": "bacterial growth OD600", "setting": "polymyxin B 1 µg/mL", "value": 1.05}]}, {"smiles": "CC(=O)N[C@@H]1c2ccccc2C2(CCN(C(=O)CCc3ccccc3)CC2)[C@H]1OCc1ccccc1", "values": [{"measurement": "bacterial growth OD600", "setting": "polymyxin B 0.75 µg/mL", "value": 0.817}]}]}
